From publication doi:10.64898/2025.12.15.694336
No constants are given. Whether binding was seen depends on the method and setting. Binding seen in cells or lysates may run through a third protein. Sequences can lack the tags named with a protein.

Experiments:
[1] = molecular target: Flag::ERGI-3 (C. elegans); test: co-IP
[2] = molecular target: Flag::ERGI-2 (C. elegans); test: co-IP

B1: IRE-1::HA (protein, UniProt Q09499 22-967)
chain: ISTPGFRNDHESIGDDEEKTSSTILVSTIDGRLRALDSETGEIKWTLQEEPVLRSPSAVKQGFTFLPNPLDGSLYVLKNSSLKKLPFNIPQLVHASPCKGNDGILYAGSKKDVWFGIDPKTGLKVETLSSASADRICPANQKQTIFLGRTEYRVSMFDEKNRGKTWNATFNDYSAHLLPEVNTWPFKHYASSSHGYILTFDRETGEMRWEQDLKQPVVALYLLRDDGLHKLPFEVMGKETMENVAKNIFTVDQWPTVLGVNAADPQTTSLTNQFFPALFVGESSFGLYAIEALVDHQTITYSPKLLGPPLLEGPAPIALTEMEKEEYLPPRRPIIRNIPPSITHKTSDGEYLLLGYHDRPMMTMATIIPTRYPVPGPHKAIGSTIERPPPQLLGPVEPQKHEDTSFILLLLNNHPIPFYATLVTMFALLLTVIWQCGRQWDQQKSTSRMDSFEIVNNPGESRSAQTSKQSNRGSFGWANRKIEIPEGWMAVGSKLMYSPSDILGTGCEGTVVYRGTFDGREVAVKRVVSEFVKFAHREADLLRESDTHPHVIRYFCMESDSQFRYLALELCIASLNDYVEQKEVQQNVTIALRDIMKQATDGLAHLHASKIVHRDMKPQNVLITMASQRGEMRAVISDFGLCKRVQPGKNSISRGIASGLAGTDGWIAPEVLISASTSYPVDIFSLGCIFYYVLTSGTHPFGKSLHRQANIVNGEYTLNKLADLDDWSLADDLISSMLNVEPLHRLTADAVLNHPFFWTSEKRLAYFSDVSDRVEKEEDNSPVVRRIETDARIVVCGGWREKICDALKEDLRKFRTYKSFSVRDLLRAMRNKKHHYRELPEDVRQSLGDIPDQFLHYFTSRFPRLLLHVYKATEYCSGEAVFKRYYSDDVRARMYPIVEEEERVRKKIKEEMANEVWARAPKPVEQRTPLKLDKRNIKKKSNPNTD
binding [1]: no binding
binding [2]: no binding
